{
  "source": "paper doi:10.1101/568113",
  "key": {"[1]": {"biological_target": "T1, PEN2 myrosinase, split-ubiquitin yeast two-hybrid fusion (Arabidopsis thaliana) (UniProt O64883)", "T1 sequence": "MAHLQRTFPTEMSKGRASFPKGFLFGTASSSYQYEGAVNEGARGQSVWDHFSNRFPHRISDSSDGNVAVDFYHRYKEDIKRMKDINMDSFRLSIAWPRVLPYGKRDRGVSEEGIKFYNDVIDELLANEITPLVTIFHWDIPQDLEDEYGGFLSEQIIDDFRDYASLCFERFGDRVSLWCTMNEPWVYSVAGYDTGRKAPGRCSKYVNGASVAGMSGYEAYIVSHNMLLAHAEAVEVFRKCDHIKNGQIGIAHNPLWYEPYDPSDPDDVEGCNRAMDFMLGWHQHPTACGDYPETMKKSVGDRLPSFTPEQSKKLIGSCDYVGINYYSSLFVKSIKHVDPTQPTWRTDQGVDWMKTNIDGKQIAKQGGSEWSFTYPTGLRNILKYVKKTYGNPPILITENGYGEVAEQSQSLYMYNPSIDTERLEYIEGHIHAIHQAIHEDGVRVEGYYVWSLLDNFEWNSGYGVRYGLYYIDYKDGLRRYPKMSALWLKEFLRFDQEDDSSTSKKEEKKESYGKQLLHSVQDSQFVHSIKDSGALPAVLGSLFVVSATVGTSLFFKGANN", "assay": "two-hybrid"}, "[2]": {"biological_target": "PEN2-GFP (Arabidopsis thaliana) (UniProt O64883)", "assay": "co-IP"}},
  "note": "These are yes or no findings as the source states them, for the method shown. For some assays here: Binding seen in cells or lysates may run through a third protein. For some assays here: Sequences can lack the tags named with a protein.",
  "data": [
    {"binder": "Phytochelatin synthase 1 (PCS1), split-ubiquitin yeast two-hybrid fusion (enzyme, UniProt Q9S7Z3 1-485) MAMASLYRRSLPSPPAIDFSSAEGKLIFNEALQKGTMEGFFRLISYFQTQSEPAYCGLASLSVVLNALSIDPGRKWKGPWRWFDESMLDCCEPLEVVKEKGISFGKVVCLAHCSGAKVEAFRTSQSTIDDFRKFVVKCTSSENCHMISTYHRGVFKQTGTGHFSPIGGYNAERDMALILDVARFKYPPHWVPLKLLWEAMDSIDQSTGKRRGFMLISRPHREPGLLYTLSCKDESWIEIAKYLKEDVPRLVSSQHVDSVEKIISVVFKSLPSNFNQFIRWVAEIRITEDSNQNLSAEEKSRLKLKQLVLKEVHETELFKHINKFLSTVGYEDSLTYAAAKACCQGAEILSGSPSKEFCCRETCVKCIKGPDDSEGTVVTGVVVRDGNEQKVDLLVPSTQTECECGPEATYPAGNDVFTALLLALPPQTWSGIKDQALMHEMKQLISMASLPTLLQEEVLHLRRQLQLLKRCQENKEEDDLAAPAY", "values": [
      {"measurement": "binding", "setting": "[1]", "value": "no binding"}
    ]},
    {"binder": "3xHA-RFP-PCS1 (enzyme, UniProt Q9S7Z3 1-485) MAMASLYRRSLPSPPAIDFSSAEGKLIFNEALQKGTMEGFFRLISYFQTQSEPAYCGLASLSVVLNALSIDPGRKWKGPWRWFDESMLDCCEPLEVVKEKGISFGKVVCLAHCSGAKVEAFRTSQSTIDDFRKFVVKCTSSENCHMISTYHRGVFKQTGTGHFSPIGGYNAERDMALILDVARFKYPPHWVPLKLLWEAMDSIDQSTGKRRGFMLISRPHREPGLLYTLSCKDESWIEIAKYLKEDVPRLVSSQHVDSVEKIISVVFKSLPSNFNQFIRWVAEIRITEDSNQNLSAEEKSRLKLKQLVLKEVHETELFKHINKFLSTVGYEDSLTYAAAKACCQGAEILSGSPSKEFCCRETCVKCIKGPDDSEGTVVTGVVVRDGNEQKVDLLVPSTQTECECGPEATYPAGNDVFTALLLALPPQTWSGIKDQALMHEMKQLISMASLPTLLQEEVLHLRRQLQLLKRCQENKEEDDLAAPAY", "values": [
      {"measurement": "binding", "setting": "[2]", "value": "no binding"}
    ]}
  ]
}
